Measurements: the supplement of paper PMC10849652
This is one part of the list.

The chains behind the UniProt entries cited, without tags or fusion partners. Where a name states a change or a piece, a line headed by the entry shows the natural chain unless it says otherwise.
UniProt Q69YQ0: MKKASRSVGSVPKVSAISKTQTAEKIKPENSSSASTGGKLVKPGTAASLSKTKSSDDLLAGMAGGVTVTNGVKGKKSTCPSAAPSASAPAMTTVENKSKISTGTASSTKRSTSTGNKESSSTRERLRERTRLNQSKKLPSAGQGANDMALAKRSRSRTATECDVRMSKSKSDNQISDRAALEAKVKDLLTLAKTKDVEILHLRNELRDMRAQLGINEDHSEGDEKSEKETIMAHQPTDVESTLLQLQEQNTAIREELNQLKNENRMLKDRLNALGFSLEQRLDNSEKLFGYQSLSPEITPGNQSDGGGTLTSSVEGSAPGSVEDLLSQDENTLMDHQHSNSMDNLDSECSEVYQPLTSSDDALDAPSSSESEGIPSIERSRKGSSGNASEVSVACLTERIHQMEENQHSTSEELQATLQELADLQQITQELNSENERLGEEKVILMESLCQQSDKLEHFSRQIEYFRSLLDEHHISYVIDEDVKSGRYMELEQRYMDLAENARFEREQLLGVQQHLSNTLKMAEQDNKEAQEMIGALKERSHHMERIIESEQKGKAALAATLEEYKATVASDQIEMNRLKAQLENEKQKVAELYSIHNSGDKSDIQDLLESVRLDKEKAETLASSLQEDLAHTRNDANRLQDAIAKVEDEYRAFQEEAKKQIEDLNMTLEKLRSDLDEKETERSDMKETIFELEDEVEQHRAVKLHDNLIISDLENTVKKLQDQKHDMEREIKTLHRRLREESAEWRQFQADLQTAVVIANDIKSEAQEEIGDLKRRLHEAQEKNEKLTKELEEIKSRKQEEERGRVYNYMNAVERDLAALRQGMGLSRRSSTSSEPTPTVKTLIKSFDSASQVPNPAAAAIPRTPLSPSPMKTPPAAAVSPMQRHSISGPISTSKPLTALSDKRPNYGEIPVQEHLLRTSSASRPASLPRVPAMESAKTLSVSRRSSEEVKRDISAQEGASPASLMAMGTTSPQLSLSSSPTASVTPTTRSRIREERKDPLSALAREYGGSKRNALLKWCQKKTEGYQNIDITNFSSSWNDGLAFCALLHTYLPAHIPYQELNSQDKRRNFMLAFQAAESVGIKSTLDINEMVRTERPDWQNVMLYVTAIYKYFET
UniProt Q9Y5M8: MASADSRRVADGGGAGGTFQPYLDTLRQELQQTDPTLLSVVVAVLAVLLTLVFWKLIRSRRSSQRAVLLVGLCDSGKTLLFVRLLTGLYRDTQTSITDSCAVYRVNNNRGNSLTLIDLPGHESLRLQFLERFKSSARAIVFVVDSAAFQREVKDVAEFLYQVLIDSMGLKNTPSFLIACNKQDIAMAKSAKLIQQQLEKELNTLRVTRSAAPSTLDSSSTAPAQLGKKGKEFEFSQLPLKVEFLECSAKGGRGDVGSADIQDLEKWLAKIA
UniProt O15270: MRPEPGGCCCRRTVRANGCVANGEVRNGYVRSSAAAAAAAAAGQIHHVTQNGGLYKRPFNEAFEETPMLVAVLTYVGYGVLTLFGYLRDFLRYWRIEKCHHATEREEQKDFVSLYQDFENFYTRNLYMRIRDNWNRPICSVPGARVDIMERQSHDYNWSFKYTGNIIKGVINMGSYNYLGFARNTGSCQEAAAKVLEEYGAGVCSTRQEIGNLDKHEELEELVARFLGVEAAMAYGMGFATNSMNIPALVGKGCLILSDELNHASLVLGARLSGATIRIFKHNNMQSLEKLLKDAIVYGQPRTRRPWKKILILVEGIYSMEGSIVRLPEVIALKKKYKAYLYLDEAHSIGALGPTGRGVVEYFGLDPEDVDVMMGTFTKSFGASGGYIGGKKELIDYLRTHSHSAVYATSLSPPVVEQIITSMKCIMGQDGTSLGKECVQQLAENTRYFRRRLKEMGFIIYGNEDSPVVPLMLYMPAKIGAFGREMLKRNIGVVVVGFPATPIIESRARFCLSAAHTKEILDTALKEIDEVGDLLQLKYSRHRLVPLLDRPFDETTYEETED
UniProt Q8WW59: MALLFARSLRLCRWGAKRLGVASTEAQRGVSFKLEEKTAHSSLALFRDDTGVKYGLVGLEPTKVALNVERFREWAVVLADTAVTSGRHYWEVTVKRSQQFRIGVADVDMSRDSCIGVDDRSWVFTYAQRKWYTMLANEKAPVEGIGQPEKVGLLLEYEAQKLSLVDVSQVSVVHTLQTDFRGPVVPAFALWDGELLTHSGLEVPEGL
UniProt P15907: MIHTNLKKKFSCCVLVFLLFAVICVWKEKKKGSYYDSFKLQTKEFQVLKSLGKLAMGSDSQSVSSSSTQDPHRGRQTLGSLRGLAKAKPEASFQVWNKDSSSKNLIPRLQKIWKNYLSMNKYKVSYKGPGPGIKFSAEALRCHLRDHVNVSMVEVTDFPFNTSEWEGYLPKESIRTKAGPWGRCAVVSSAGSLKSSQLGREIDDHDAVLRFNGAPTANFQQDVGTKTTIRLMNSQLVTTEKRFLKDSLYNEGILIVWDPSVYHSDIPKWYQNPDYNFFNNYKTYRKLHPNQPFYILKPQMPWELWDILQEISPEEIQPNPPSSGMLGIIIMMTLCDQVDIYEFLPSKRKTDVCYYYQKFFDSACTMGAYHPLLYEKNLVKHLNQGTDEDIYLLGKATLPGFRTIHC
UniProt Q01130: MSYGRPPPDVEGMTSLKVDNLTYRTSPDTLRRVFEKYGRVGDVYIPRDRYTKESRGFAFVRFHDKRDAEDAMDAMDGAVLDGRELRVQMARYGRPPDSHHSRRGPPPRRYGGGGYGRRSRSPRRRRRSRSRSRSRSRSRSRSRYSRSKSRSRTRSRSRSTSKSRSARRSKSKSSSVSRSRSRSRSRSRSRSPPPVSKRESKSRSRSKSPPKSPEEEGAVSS
UniProt Q9BYN0: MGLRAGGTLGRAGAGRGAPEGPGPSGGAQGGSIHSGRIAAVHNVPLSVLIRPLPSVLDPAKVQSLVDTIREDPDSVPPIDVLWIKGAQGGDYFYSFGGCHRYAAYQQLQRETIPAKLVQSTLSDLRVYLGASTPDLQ
UniProt P42224: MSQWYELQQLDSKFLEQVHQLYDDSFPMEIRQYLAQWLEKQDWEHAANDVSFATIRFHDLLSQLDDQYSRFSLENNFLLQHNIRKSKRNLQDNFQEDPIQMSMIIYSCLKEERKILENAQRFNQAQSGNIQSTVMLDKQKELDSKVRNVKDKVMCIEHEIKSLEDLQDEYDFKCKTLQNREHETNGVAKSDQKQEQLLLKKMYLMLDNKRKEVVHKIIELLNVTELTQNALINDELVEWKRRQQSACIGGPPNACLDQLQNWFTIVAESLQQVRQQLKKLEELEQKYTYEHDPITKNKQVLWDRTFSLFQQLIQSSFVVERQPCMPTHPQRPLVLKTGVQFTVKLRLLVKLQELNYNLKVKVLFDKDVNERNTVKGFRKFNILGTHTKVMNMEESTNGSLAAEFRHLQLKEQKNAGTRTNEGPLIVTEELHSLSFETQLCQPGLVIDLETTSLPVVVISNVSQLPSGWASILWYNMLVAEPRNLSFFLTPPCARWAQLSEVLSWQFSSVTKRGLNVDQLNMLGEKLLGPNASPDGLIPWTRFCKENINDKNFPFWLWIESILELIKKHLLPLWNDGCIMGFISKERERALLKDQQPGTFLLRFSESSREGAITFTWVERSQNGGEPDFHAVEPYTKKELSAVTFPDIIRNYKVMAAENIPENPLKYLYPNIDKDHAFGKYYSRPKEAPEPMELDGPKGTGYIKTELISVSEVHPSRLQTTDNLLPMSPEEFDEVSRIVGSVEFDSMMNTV
UniProt Q07955, whole entry, looked up: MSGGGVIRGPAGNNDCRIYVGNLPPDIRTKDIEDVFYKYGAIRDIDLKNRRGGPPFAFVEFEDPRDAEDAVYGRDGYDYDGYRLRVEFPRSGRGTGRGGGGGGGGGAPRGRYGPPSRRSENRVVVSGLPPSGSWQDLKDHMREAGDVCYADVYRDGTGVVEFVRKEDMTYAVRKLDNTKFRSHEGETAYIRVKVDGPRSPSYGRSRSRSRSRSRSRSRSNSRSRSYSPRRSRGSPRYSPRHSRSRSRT
UniProt Q16629: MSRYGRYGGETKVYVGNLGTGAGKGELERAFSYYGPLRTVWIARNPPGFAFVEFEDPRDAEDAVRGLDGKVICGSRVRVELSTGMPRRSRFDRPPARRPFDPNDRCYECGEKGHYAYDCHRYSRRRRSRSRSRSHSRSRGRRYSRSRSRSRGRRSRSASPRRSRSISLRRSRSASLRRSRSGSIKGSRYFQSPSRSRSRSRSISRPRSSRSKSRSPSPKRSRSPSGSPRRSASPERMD
UniProt Q86XZ4: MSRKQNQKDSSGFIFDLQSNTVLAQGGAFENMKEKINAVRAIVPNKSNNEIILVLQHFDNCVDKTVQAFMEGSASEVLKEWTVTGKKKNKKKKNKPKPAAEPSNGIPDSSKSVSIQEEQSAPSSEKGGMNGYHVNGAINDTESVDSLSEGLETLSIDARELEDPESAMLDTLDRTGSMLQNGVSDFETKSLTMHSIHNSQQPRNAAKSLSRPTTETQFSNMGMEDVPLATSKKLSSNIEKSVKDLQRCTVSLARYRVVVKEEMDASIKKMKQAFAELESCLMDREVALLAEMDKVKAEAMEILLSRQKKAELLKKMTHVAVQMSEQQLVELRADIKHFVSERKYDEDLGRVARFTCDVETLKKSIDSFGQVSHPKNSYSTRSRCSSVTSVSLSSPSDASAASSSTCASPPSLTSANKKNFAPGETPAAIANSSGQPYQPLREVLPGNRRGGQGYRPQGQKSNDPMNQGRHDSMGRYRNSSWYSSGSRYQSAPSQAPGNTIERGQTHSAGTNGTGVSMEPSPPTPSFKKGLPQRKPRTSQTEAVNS
UniProt P43307: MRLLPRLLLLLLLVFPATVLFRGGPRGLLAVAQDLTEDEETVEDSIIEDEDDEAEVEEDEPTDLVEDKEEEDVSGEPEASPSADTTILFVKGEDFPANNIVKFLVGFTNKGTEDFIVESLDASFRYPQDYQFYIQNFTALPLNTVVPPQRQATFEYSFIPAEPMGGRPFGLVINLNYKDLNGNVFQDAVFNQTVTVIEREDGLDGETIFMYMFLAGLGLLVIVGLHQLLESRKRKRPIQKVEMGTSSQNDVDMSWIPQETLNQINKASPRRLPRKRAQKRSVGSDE
UniProt Q9NZD8: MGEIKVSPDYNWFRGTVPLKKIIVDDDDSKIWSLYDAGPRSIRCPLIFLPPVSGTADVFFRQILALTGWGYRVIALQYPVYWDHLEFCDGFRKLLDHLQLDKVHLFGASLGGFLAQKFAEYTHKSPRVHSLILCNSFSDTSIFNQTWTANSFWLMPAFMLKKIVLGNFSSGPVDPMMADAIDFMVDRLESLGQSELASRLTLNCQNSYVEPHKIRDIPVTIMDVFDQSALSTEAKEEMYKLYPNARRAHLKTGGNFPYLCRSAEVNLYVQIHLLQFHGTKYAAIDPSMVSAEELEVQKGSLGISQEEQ
UniProt P40763, whole entry, looked up: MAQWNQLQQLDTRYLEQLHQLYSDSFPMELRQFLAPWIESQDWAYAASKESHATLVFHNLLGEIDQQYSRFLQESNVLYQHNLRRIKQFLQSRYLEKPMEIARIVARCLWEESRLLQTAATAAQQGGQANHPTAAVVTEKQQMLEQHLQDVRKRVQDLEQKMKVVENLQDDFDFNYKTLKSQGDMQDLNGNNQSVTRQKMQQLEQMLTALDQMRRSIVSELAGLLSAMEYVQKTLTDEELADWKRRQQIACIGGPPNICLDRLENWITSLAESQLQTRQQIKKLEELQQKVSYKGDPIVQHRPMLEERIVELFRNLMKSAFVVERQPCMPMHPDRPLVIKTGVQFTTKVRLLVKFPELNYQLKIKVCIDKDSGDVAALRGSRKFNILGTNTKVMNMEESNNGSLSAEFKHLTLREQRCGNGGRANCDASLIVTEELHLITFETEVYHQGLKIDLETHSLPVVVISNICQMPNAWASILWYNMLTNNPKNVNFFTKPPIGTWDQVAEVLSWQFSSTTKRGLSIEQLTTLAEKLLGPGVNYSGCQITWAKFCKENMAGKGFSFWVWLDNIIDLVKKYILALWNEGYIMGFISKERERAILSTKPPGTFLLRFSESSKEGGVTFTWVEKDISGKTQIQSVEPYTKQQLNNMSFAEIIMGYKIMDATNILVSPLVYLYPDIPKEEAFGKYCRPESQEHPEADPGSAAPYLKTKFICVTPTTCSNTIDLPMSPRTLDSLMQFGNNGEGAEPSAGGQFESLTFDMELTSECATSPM

Columns and labels:
Assay in all cases: log2 fold change, soluble protein after heating vs DMSO (PISA); higher = thermal stabilisation; K562 lysate, 10 uM; active = over 0.2 and 3.5 SD of the protein, either way, in both replicates (recomputed)
alvocidib = compound: CN1CC[C@H](c2c(O)cc(O)c3c(=O)cc(-c4ccccc4Cl)oc23)[C@H](O)C1 [alvocidib]
Method in brief: (§1)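 K562 pellets were dounce-homogenised in PBS pH 7.4 containing 1 mM MgCl2, and the crude extract, at 1 mg/mL protein, was exposed to 10 μM compound for 30 min. Aliquots were heated for 3 min across 48°C-58°C, pooled, brought to 0.5% NP-40 at 4°C and spun at 21,000xg for 90 min, with the supernatant taken as soluble protein. TMTpro 16plex LC-MS/MS with equalised channel sums quantified that protein. Values are log-two fold changes in thermal stability relative to solvent controls, taken from duplicates.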

Tubastatin A = compound: CN1CCc2c(c3ccccc3n2Cc2ccc(C(=O)NO)cc2)C1 [Tubastatin A]
Method in brief: as §1

[1] = compound: CNC(=O)C1=CC=CC=C1NC2=NC(=NC=C2Cl)NC3=C(C=C(C=C3)N4CCOCC4)OC
Method in brief: as §1

defactinib = compound: CNC(=O)c1ccc(Nc2ncc(C(F)(F)F)c(NCc3nccnc3N(C)S(C)(=O)=O)n2)cc1 [defactinib]
Method in brief: as §1

[2] = compound: CNc1nc(-c2ccc3c(N)n[nH]c3c2)cc(N2C[C@@H](C(=O)NC3CCCCC3)CC[C@H]2C)n1
Method in brief: as §1

encorafenib = compound: COC(=O)N[C@@H](C)CNc1nccc(-c2cn(C(C)C)nc2-c2cc(Cl)cc(NS(C)(=O)=O)c2F)n1 [encorafenib]
Method in brief: as §1

[3] = compound: COC(=O)[C@H](CCSC)NC(=O)C1=C(C=C(C=C1)NC[C@H](CS)N)C2=CC=CC=C2
Method in brief: as §1

alisertib = compound: COc1cc(Nc2ncc3c(n2)-c2ccc(Cl)cc2C(c2c(F)cccc2OC)=NC3)ccc1C(=O)O [alisertib]
Method in brief: as §1

[4] = compound: COc1cc2nc(-c3cc(F)ccc3O)nc(N[C@@H]3CNC[C@H]3C(C)(C)O)c2cc1OC
Method in brief: as §1

gefitinib = compound: COc1cc2ncnc(Nc3ccc(F)c(Cl)c3)c2cc1OCCCN1CCOCC1 [gefitinib]
Method in brief: as §1

lapatinib = compound: CS(=O)(=O)CCNCc1ccc(-c2ccc3ncnc(Nc4ccc(OCc5cccc(F)c5)c(Cl)c4)c3c2)o1 [lapatinib]
Method in brief: as §1

pictilisib = compound: CS(=O)(=O)N1CCN(Cc2cc3nc(-c4cccc5[nH]ncc45)nc(N4CCOCC4)c3s2)CC1 [pictilisib]
Method in brief: as §1

crizotinib = compound: C[C@@H](Oc1cc(-c2cnn(C3CCNCC3)c2)cnc1N)c1c(Cl)ccc(F)c1Cl [crizotinib]
Method in brief: as §1

[5] = compound: C[C@H](C1=CC=C(C=C1)C(=O)NC2=C3C=CNC3=NC=C2)N
Method in brief: as §1

duvelisib = compound: C[C@H](Nc1ncnc2nc[nH]c12)c1cc2cccc(Cl)c2c(=O)n1-c1ccccc1 [duvelisib]
Method in brief: as §1

gandotinib = compound: Cc1cc(Nc2cc(CN3CCOCC3)c3nc(C)c(Cc4ccc(Cl)cc4F)n3n2)n[nH]1 [gandotinib]
Method in brief: as §1

tozasertib = compound: Cc1cc(Nc2cc(N3CCN(C)CC3)nc(Sc3ccc(NC(=O)C4CC4)cc3)n2)n[nH]1 [tozasertib]
Method in brief: as §1

doramapimod = compound: Cc1ccc(-n2nc(C(C)(C)C)cc2NC(=O)Nc2ccc(OCCN3CCOCC3)c3ccccc23)cc1 [doramapimod]
Method in brief: as §1

bafetinib = compound: Cc1ccc(NC(=O)c2ccc(CN3CC[C@H](N(C)C)C3)c(C(F)(F)F)c2)cc1Nc1nccc(-c2cncnc2)n1 [bafetinib]
Method in brief: as §1

[6] = compound: Cc1cccc(CC(=O)N2CCc3c2ccc(-c2cn(C)c4ncnc(N)c24)c3F)n1
Method in brief: as §1

Target	log2 fold change (alvocidib)	log2 fold change (Tubastatin A)	log2 fold change [1]	log2 fold change (defactinib)	log2 fold change [2]	log2 fold change (encorafenib)	log2 fold change [3]	log2 fold change (alisertib)	log2 fold change [4]	log2 fold change (gefitinib)	log2 fold change (lapatinib)	log2 fold change (pictilisib)	log2 fold change (crizotinib)	log2 fold change [5]	log2 fold change (duvelisib)	log2 fold change (gandotinib)	log2 fold change (tozasertib)	log2 fold change (doramapimod)	log2 fold change (bafetinib)	log2 fold change [6]
SPECC1L (UniProt Q69YQ0)	inactive: 0.097	inactive: 0.049	inactive: -0.005	inactive: 0.052	inactive: 0.005	inactive: -0.011	inactive: -0.037	inactive: 0.049	inactive: 0.005	inactive: -0.003	inactive: -0.024	inactive: -0.009	inactive: -0.004	inactive: -0.091	inactive: -0.012	inactive: 0.108	inactive: -0.008	inactive: 0.015	inactive: -0.015	inactive: -0.011
SRPRB (UniProt Q9Y5M8)	inactive: -0.041	inactive: 0.035	inactive: -0.01	inactive: -0.038	inactive: -0.024	inactive: -0.002	inactive: 0	inactive: 0.017	inactive: 0.061	inactive: -0.025	inactive: -0.002	inactive: 0.009	inactive: 0.103	inactive: -0.03	inactive: -0.034	inactive: -0.088	inactive: 0.034	inactive: -0.014	inactive: 0.023	inactive: -0.02
SPTLC2 (UniProt O15270)	inactive: -0.066	inactive: 0.007	inactive: 0.003	inactive: 0.016	inactive: -0.063	inactive: 0.018	inactive: -0.036	inactive: -0.025	inactive: 0.014	inactive: 0.026	inactive: -0.026	inactive: 0.032	inactive: -0.014	inactive: -0.04	inactive: 0.041	inactive: 0.074	inactive: 0.015	inactive: 0.067	inactive: -0.085	inactive: 0.061
SPRYD4 (UniProt Q8WW59)	inactive: -0.016	inactive: 0.047	inactive: 0.005	inactive: -0.01	inactive: 0.011	inactive: 0.003	inactive: 0.01	inactive: 0.017	inactive: 0.008	inactive: -0.034	inactive: -0.046	inactive: -0.003	inactive: -0.059	inactive: -0.081	inactive: -0.009	inactive: 0.047	inactive: 0.005	inactive: 0.008	inactive: -0.071	inactive: 0.086
ST6GAL1 (UniProt P15907)	inactive: 0.014	inactive: 0.045	inactive: 0.04	inactive: 0.112	inactive: 0.002	inactive: -0.109	inactive: -0.02	inactive: 0.026	inactive: -0.032	inactive: 0	inactive: -0.012	inactive: -0.001	inactive: -0.044	inactive: -0.028	inactive: 0.008	inactive: -0.043	inactive: 0.047	inactive: 0.037	inactive: -0.005	inactive: 0.04
SRSF2 (UniProt Q01130)	inactive: -0.135	inactive: 0.084	inactive: -0.017	inactive: -0.018	inactive: -0.005	inactive: 0.033	inactive: -0.016	inactive: -0.004	inactive: 0.016	inactive: 0.015	inactive: 0.015	inactive: -0.005	inactive: 0.006	active: -0.299	inactive: 0.061	inactive: 0.079	inactive: 0.026	inactive: 0.05	inactive: -0.016	inactive: 0.109
SRXN1 (UniProt Q9BYN0)	inactive: 0.041	inactive: 0.053	inactive: 0.061	inactive: 0.025	inactive: -0.03	inactive: -0.08	inactive: 0.233	inactive: 0.033	inactive: 0.028	inactive: -0.017	inactive: 0.07	inactive: -0.04	inactive: -0.037	inactive: 0.007	inactive: 0.001	inactive: -0.017	inactive: 0.089	inactive: -0.031	inactive: 0.054	inactive: 0.106
STAT1 (UniProt P42224)	inactive: -0.021	inactive: -0.074	inactive: 0.004	inactive: 0.014	inactive: -0.023	inactive: 0.012	inactive: 0.016	inactive: 0.022	inactive: -0.012	inactive: -0.024	inactive: -0.011	inactive: 0.001	inactive: -0.049	inactive: -0.044	inactive: -0.044	inactive: -0.027	inactive: 0.008	inactive: 0.027	inactive: -0.072	inactive: 0.084
SRSF1 (UniProt Q07955)	inactive: 0.001	inactive: -0.006	inactive: -0.015	inactive: -0.037	inactive: 0.065	inactive: 0.012	inactive: 0.012	inactive: -0.015	inactive: -0.004	inactive: 0.013	inactive: -0.008	inactive: -0.018	inactive: 0	inactive: 0.081	inactive: 0.01	inactive: -0.066	inactive: 0.005	inactive: 0.012	inactive: 0.016	inactive: -0.061
SRSF7 (UniProt Q16629)	inactive: -0.2	inactive: -0.005	inactive: -0.057	inactive: -0.06	inactive: 0.051	inactive: 0.032	inactive: 0.049	inactive: 0.006	inactive: 0.038	inactive: 0.067	inactive: -0.061	inactive: 0.075	inactive: 0.084	active: -0.218	inactive: 0.058	inactive: 0	inactive: 0.036	inactive: -0.01	inactive: 0.05	inactive: 0.194
SQSTM1 (UniProt Q13501)	inactive: 0.059	inactive: -0.013	inactive: -0.026	inactive: 0.007	inactive: -0.018	inactive: -0.012	inactive: -0.042	inactive: -0.005	inactive: -0.016	inactive: -0.018	inactive: -0.036	inactive: 0.011	inactive: 0.007	inactive: 0.044	inactive: 0.045	inactive: -0.076	inactive: -0.014	inactive: -0.022	inactive: -0.005	inactive: -0.044
SPATS2 (UniProt Q86XZ4)	inactive: 0.039	inactive: -0.075	inactive: 0.019	inactive: 0.353	inactive: 0.036	inactive: 0.066	inactive: -0.195	inactive: -0.015	inactive: -0.047	inactive: 0	inactive: 0.027	inactive: -0.119	inactive: 0.09	inactive: -0.016	inactive: 0.048	inactive: 0.145	inactive: -0.062	inactive: -0.126	inactive: -0.206	inactive: -0.164
SSR1 (UniProt P43307)	inactive: -0.027	inactive: 0.029	inactive: -0.025	inactive: 0.022	inactive: 0.03	inactive: -0.004	inactive: -0.011	inactive: 0.066	inactive: -0.007	inactive: 0.013	inactive: 0.009	inactive: 0.009	inactive: -0.019	inactive: -0.049	inactive: 0.014	inactive: 0.061	inactive: 0.048	inactive: -0.028	inactive: -0.014	inactive: 0.081
SPG21 (UniProt Q9NZD8)	inactive: -0.005	inactive: -0.069	inactive: -0.021	inactive: 0.01	inactive: -0.074	inactive: 0.024	inactive: 0.067	inactive: 0.011	inactive: -0.011	inactive: 0.006	inactive: -0.071	inactive: 0.009	inactive: -0.014	inactive: -0.03	inactive: -0.018	inactive: -0.089	inactive: 0.006	inactive: 0.042	inactive: 0.009	inactive: 0.149
STAT3 isoform 3 (UniProt P40763)	inactive: 0.032	inactive: 0	inactive: -0.237	inactive: -0.02	inactive: 0.044	inactive: 0.044	inactive: 0.11	inactive: 0.039	inactive: 0.068	inactive: -0.096	inactive: -0.016	inactive: -0.007	inactive: 0.045	inactive: 0	inactive: -0.069	inactive: -0.046	inactive: -0.05	inactive: -0.112	inactive: -0.172	inactive: -0.028

2 entries from above in another layout.

| Target | log2 fold change (alvocidib) | log2 fold change (Tubastatin A) | log2 fold change [1] | log2 fold change (defactinib) | log2 fold change [2] | log2 fold change (encorafenib) | log2 fold change [3] | log2 fold change (alisertib) | log2 fold change [4] | log2 fold change (gefitinib) | log2 fold change (lapatinib) | log2 fold change (pictilisib) | log2 fold change (crizotinib) | log2 fold change [5] | log2 fold change (duvelisib) | log2 fold change (gandotinib) | log2 fold change (tozasertib) | log2 fold change (doramapimod) | log2 fold change (bafetinib) | log2 fold change [6] |
| --- | --- | --- | --- | --- | --- | --- | --- | --- | --- | --- | --- | --- | --- | --- | --- | --- | --- | --- | --- | --- |
| SRSF2 (UniProt Q01130) | inactive: -0.135 | inactive: 0.084 | inactive: -0.017 | inactive: -0.018 | inactive: -0.005 | inactive: 0.033 | inactive: -0.016 | inactive: -0.004 | inactive: 0.016 | inactive: 0.015 | inactive: 0.015 | inactive: -0.005 | inactive: 0.006 | active: -0.299 | inactive: 0.061 | inactive: 0.079 | inactive: 0.026 | inactive: 0.05 | inactive: -0.016 | inactive: 0.109 |
| SRXN1 (UniProt Q9BYN0) | inactive: 0.041 | inactive: 0.053 | inactive: 0.061 | inactive: 0.025 | inactive: -0.03 | inactive: -0.08 | inactive: 0.233 | inactive: 0.033 | inactive: 0.028 | inactive: -0.017 | inactive: 0.07 | inactive: -0.04 | inactive: -0.037 | inactive: 0.007 | inactive: 0.001 | inactive: -0.017 | inactive: 0.089 | inactive: -0.031 | inactive: 0.054 | inactive: 0.106 |
